Source: publication PMC3163269
Positions count from the first letter of the chain named. In names and notes the source's numbering stands. Results are given in words; binding and its absence hold for the method and conditions named. Some binding calls cover weakened binding; strength is not graded here. For part of these data: Where a sequence is shown, tags or fusion partners need not be part of it. Blank lines part the entries; values can stand above or below the binder they belong to.

Assays:
[1] = biological target: Thermotoga maritima MreB, wild-type, untagged (pFE349) (Thermotoga maritima) (UniProt Q9WZ57); assay: electron cryotomography of protein on lipid vesicles; vesicles (E. coli total lipid extract) mixed with 1 mg/ml MreB in polymerization buffer with AMP-PNP, frozen immediately; both purified
[2] = biological target: Thermotoga maritima MreB, wild-type, untagged (pFE349) (Thermotoga maritima) (UniProt Q9WZ57); assay: negative stain electron microscopy with single-particle analysis; TmMreB 0.2 mg/ml in a droplet on a lipid monolayer (E. coli polar lipid extract) on a carbon-coated nickel grid; polymerization buffer 100 mM Tris pH 7.4, 100 mM NaCl, 3 mM MgCl2, 1.5 mM AMP-PNP; 2% uranyl acetate; both purified
[3] = biological target: Thermotoga maritima MreB L93A/F94A (Thermotoga maritima) (UniProt Q9WZ57); assay: polymerization assay analyzed by negative stain electron microscopy; data not shown; both purified

- binding [1]: binds
- binding [2]: binds
B1: Thermotoga maritima MreB, wild-type, untagged (pFE349) (protein, UniProt Q9WZ57 1-336)
chain: MLRKDIGIDLGTANTLVFLRGKGIVVNEPSVIAIDSTTGEILKVGLEAKNMIGKTPATIKAIRPMRDGVIADYTVALVMLRYFINKAKGGMNLFKPRVVIGVPIGITDVERRAILDAGLEAGASKVFLIEEPMAAAIGSNLNVEEPSGNMVVDIGGGTTEVAVISLGSIVTWESIRIAGDEMDEAIVQYVRETYRVAIGERTAERVKIEIGNVFPSKENDELETTVSGIDLSTGLPRKLTLKGGEVREALRSVVVAIVESVRTTLEKTPPELVSDIIERGIFLTGGGSLLRGLDTLLQKETGISVIRSEEPLTAVAKGAGMVLDKVNILKKLQGAG

- binding [3]: binds
B2: Thermotoga maritima MreB L93A/F94A (protein, UniProt Q9WZ57 1-336)
chain: B1 chain with L93A, F94A
